For one substance, binding results are on record in publication PMC3695902.

Chains of the proteins cited; added tags and fusions are not shown.
UniProt P41145: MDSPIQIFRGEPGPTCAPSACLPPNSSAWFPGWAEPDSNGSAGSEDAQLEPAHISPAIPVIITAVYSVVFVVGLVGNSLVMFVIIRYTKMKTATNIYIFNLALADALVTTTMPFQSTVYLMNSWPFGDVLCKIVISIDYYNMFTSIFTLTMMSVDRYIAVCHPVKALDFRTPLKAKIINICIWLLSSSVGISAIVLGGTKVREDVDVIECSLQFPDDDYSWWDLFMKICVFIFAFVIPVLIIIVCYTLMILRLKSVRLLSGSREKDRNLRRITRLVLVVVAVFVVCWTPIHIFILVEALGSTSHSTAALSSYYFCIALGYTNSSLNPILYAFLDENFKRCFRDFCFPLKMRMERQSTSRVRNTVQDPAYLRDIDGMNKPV
UniProt P35212: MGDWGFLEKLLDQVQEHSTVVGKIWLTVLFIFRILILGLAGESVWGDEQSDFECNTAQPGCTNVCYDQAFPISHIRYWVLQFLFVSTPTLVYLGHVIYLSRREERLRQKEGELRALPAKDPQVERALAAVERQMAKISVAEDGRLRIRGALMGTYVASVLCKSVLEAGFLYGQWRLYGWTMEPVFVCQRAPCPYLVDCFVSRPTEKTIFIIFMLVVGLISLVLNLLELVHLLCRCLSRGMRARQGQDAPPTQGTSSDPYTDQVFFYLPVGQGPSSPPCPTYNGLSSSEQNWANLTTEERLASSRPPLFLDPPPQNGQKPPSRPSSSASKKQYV

Results are given in words; binding and its absence hold for the method and conditions named. Binding seen in cells or lysates may run through a third protein. Some binding calls cover weakened binding; strength is not graded here.

In this test the target is FLAG-tagged kappa opioid receptor stably expressed in HEK293 cells (HEK-KOR) (UniProt P41145). The test is described as follows: co-IP; FLAG-tagged MOR, DOR or KOR immunoprecipitated with rabbit anti-FLAG on Protein-G Dynabeads from 1 mg lysate of stably expressing HEK293 cells transfected with tagged MORIPs; blot anti-myc or anti-HA; mock IP with non-specific rabbit IgG; cells of Figure 7B treated 6 hours with 30 µM MG132.

In the case of “myc-tagged full-length Cx37 (from UniProt P35212 1-333)”, the binding result is “binds”.
